{"source": "PubChem BioAssay AID1259280 (Sanger Institute, 2017)", "screen": "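Kinase knock-downs that kill colorectal cancer cells or add to anchor drugs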 (primary screen)", "cells": "human SNU407 colorectal cancer cells", "knock-down reagent": "siRNA pool against human genes", "treatment": "anchor drugs BYL719 at 1 µM, cetuximab at 5 µg/ml or trametinib at 10 nM, or DMSO vehicle alone; exposure time not given", "read-out": "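Viability relative to non-targeting control siRNA, expressed as robust z-score, plus a synergy score for each of the three anchor drugs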", "reading the numbers": "viability z-score, no drug: higher = more cells survive the knock-down", "hit rule": "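Essential calls require a no-drug robust viability z-score under -3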", "calls": "active = essential (knock-down alone kills cells); inactive = no change without drug", "note": "Here is a random part of 794 deposited reagents. 12 of all reagents (1.5%) count as active. 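Calls cover knock-down without drug only; synergy scores stand apart, values above 0.15 being treated as synergy.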 Not all columns of the deposit are shown. The record does not give: the amount of reagent, the time to read-out."}
The first 2 records, ahead of the listing:
{"target gene": "CDK5R2", "PubChem SID": "SID56479219", "viability z-score, no drug": 0.247, "activity call": "inactive"}
{"target gene": "NUP107", "PubChem SID": "SID152154550", "viability z-score, no drug": -2.62, "activity call": "inactive"}

Results, repeating the preview:
{"target gene": "CDK5R2", "PubChem SID": "SID56479219", "viability z-score, no drug": 0.247, "activity call": "inactive"}
{"target gene": "NUP107", "PubChem SID": "SID152154550", "viability z-score, no drug": -2.62, "activity call": "inactive"}
{"target gene": "PIK3C3", "PubChem SID": "SID134310831", "viability z-score, no drug": -0.154, "activity call": "inactive"}
{"target gene": "PMVK", "PubChem SID": "SID135621255", "viability z-score, no drug": -0.0955, "activity call": "inactive"}
{"target gene": "PKMYT1", "PubChem SID": "SID56478956", "viability z-score, no drug": -0.341, "activity call": "inactive"}
{"target gene": "WIPF1", "PubChem SID": "SID152149422", "viability z-score, no drug": -1.59, "activity call": "inactive"}
{"target gene": "DLG1", "PubChem SID": "SID152148481", "viability z-score, no drug": 0.901, "activity call": "inactive"}
{"target gene": "NTRK2", "PubChem SID": "SID152152425", "viability z-score, no drug": 0.901, "activity call": "inactive"}
{"target gene": "SRC", "PubChem SID": "SID56478553", "viability z-score, no drug": -0.329, "activity call": "inactive"}
{"target gene": "DYRK1B", "PubChem SID": "SID56478878", "viability z-score, no drug": -0.658, "activity call": "inactive"}
{"target gene": "STK17B", "PubChem SID": "SID56478762", "viability z-score, no drug": 0.248, "activity call": "inactive"}
{"target gene": "AKT3", "PubChem SID": "SID56478465", "viability z-score, no drug": 0.419, "activity call": "inactive"}
{"target gene": "NEK1", "PubChem SID": "SID152155530", "viability z-score, no drug": -0.26, "activity call": "inactive"}
{"target gene": "BRD4", "PubChem SID": "SID152154839", "viability z-score, no drug": -0.133, "activity call": "inactive"}
{"target gene": "CDK18", "PubChem SID": "SID56478887", "viability z-score, no drug": -1.68, "activity call": "inactive"}
{"target gene": "STKLD1", "PubChem SID": "SID152151495", "viability z-score, no drug": -2.36, "activity call": "inactive"}
{"target gene": "NEK4", "PubChem SID": "SID152155431", "viability z-score, no drug": -0.0835, "activity call": "inactive"}
{"target gene": "CEP290", "PubChem SID": "SID152154792", "viability z-score, no drug": 0.901, "activity call": "inactive"}
{"target gene": "SKAP1", "PubChem SID": "SID152154182", "viability z-score, no drug": 0.787, "activity call": "inactive"}
